Reference: the supplement of paper PMC8007513
This is one part of the list. Many values rest on one well or one pass, so single values are uncertain.

Each compound was assayed on Saccharomyces cerevisiae BY4743 (assay: growth (OD600) relative to untreated control; higher = less growth inhibition). Details: compound concentration: 133 uM; 20 h.
Protocol: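 NMCCC compounds (133 uM, no IPBC) tested alone against Saccharomyces cerevisiae BY4743 in YPD, 96-well plates, starting OD600 ~0.1. Growth was read as OD600 at 20 h and expressed as % of the untreated control. Single pass.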

Row | SMILES | growth [%]
1 | CC1=CC=C(C)C(=C1)[S](=O)(=O)N(CC2=CC=CC=C2)C\3C[S](=O)(=O)\C=C3 (centres undefined) | 99
2 | Brc1nnnn1-c1ccc2c(c1)OCCO2 | 92.8
3 | CCOc1ccccc1NC(=O)NCc1c(C)nn(CC)c1C | 71.6
4 | CC(=O)c1ccc(NC(=O)c2nc3nc(C)cc(C(F)F)n3n2)cc1 | 81.5
5 | CCOC(=O)c1c(S(=O)(=O)Nc2ccc(C)cn2)c(C)n(C)c1C | 100
6 | FC1=CC=CC(=C1)CCNC(=O)CCC(=O)N\2CC\C(=N2)C3=CC=CC=C3 | 100
7 | Cc1nc(-c2ccccc2)c(C(=O)OCC(=O)c2ccc[nH]2)s1 | 105
8 | CCN1CCC(N(Cc2cccs2)C(=O)Nc2cccc(C)c2C)CC1 | 103
9 | Cc1cc(-c2ccco2)n(CC(=O)NCc2ccccc2Cl)n1 | 105
10 | COC(=O)c1c(C)[nH]c(C(=O)CN2CCN(c3nccs3)CC2)c1C | 94.8
11 | CCCC(=O)Nc1ccc(C(=O)CSc2nnc(-c3cccnc3)n2C)cc1 | 105
12 | O=C\1CC(N\C(=N1)N2CCOCC2)C(=O)NC3=CC=CC=C3 (centres undefined) | 112
13 | CCOc1cccc(CC(=O)Nc2nc3ccc(Cl)cc3o2)c1OCC | 90.2
14 | CC1(CC[S](=O)(=O)C1)NC(=O)C/2=N/N(CC3=CC=CC=C3)C(=O)/C=C2 (centres undefined) | 95.1
15 | CCOc1ccc(N(C)S(=O)(=O)c2ccc3c(c2)NC(=O)CC(C)S3)cc1 (centres undefined) | 96.1
16 | Cc1sc2nc(CSC(C)C(=O)OCC(=O)N(C)C)nc(O)c2c1C (centres undefined) | 96.2
17 | CN(C)c1cccc(C(=O)OCc2cn3cc(Cl)ccc3n2)c1 | 71.6
18 | CCN(CC)CCn1c2ccccc2c2nc(C)sc21 | 71.2
19 | CCC(C)c1ccc(NC(=O)c2cnn3c(C(F)F)cc(C)nc23)cc1 (centres undefined) | 97.4
20 | CCC(C)N\1C(=O)C2=CC=CC=C2\N=C1SCC(=O)N3CCNC3=O (centres undefined) | 99

Quoted at random: 3 records from the list.
Row | SMILES | growth [%]
8 | CCN1CCC(N(Cc2cccs2)C(=O)Nc2cccc(C)c2C)CC1 | 103
2 | Brc1nnnn1-c1ccc2c(c1)OCCO2 | 92.8
1 | CC1=CC=C(C)C(=C1)[S](=O)(=O)N(CC2=CC=CC=C2)C\3C[S](=O)(=O)\C=C3 (centres undefined) | 99

(listing goes on)

Row | SMILES | growth [%]
21 | COc1ccc(CNC(=O)COC(=O)Cc2c(C)nn(C)c2C)cc1 | 101
22 | CO\C1=C\N(CC(=O)NCC2=CC=C(F)C=C2)\C(=C/C1=O)CN3CCOCC3 | 101
23 | COc1ccc(S(=O)(=O)N(C)C)cc1NC(=O)CNC(c1ccccc1)C(C)C (centres undefined) | 106
24 | COC1=CC=C2[N]3CC\N=C(NCCO)/C3=CC2=C1 | 104
25 | CCCN(CC(=O)NC1=CC=CC=C1OC)C(=O)\C2=C\OCCO2 | 110
26 | COc1ccc(CN(C)C(=O)c2cc(Br)ccc2F)c(OC)c1OC | 102
27 | CCS(=O)(=O)N1CCc2cc(C(=O)COC(=O)c3cc(Cl)ccc3O)ccc21 | 84.7
28 | C[N]1N=C(C)C\2=C1C(=O)N(CC(=O)NCC3=CC=CC=C3C)\C=C2 | 88.8
29 | CCCC(=O)Nc1cc2nn(-c3ccccc3)nc2cc1Cl | 90.6
30 | CCOC(=O)c1c(C)[nH]c(C)c1C(=O)CN1CCc2cc(OC)c(OC)cc2C1 | 109
31 | CCOC(CNC(=O)c1cc2c(s1)-c1ccccc1OC2)OCC | 105
32 | COc1ccc(C)cc1NC(=O)CC(C)(C(=O)O)c1ccccc1 (centres undefined) | 105
33 | CCOC(=O)C(NC(=O)c1ccco1)(Nc1sc2c(c1C(=O)OC)CCCC2)C(F)(F)F (centres undefined) | 102
34 | CC(C)OCCN1CCc2cc(S(=O)(=O)N(C)C)ccc21 | 104
35 | N#Cc1cccnc1NCc1ccc(Cn2cncn2)cc1 | 106
36 | CCN(CC)S(=O)(=O)c1cc(-c2nnc(O)c3ccccc23)ccc1C | 101
37 | CCOC(=O)c1c(C)[nH]c(C)c1S(=O)(=O)N1CCN(Cc2ccccc2)CC1 | 108
38 | CCOc1ccc(N2C(=O)N(CC(=O)NCCC(C)C)c3ccccc3S2(=O)=O)cc1 | 92.9
39 | CCCC(=O)Nc1nc2cc(NS(=O)(=O)c3cccs3)ccc2s1 | 112
